# Source: the supplement of paper PMC6411743
# By UniProt entry, the sequences of proteins in these tests, tags left out. Where a name states a change or a piece, a line headed by the entry shows the natural chain unless it says otherwise.
# UniProt Q86VS8: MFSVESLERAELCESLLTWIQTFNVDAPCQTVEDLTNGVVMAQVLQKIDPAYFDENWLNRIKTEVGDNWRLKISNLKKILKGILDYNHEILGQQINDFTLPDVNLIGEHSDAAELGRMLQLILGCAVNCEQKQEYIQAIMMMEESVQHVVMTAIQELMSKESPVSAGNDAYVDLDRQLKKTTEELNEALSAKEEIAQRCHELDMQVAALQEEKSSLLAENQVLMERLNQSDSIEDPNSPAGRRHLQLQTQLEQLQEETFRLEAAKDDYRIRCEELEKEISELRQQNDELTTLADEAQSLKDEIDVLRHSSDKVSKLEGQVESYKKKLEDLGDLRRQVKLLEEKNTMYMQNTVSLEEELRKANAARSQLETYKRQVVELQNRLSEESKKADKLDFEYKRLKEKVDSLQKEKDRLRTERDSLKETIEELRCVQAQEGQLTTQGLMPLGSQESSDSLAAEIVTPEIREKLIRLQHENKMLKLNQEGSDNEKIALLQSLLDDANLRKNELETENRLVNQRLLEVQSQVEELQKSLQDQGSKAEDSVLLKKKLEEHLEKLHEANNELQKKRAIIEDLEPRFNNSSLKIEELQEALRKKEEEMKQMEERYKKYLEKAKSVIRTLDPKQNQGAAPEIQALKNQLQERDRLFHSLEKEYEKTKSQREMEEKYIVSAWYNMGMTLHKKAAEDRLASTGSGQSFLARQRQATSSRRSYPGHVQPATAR
# UniProt Q2VPK5: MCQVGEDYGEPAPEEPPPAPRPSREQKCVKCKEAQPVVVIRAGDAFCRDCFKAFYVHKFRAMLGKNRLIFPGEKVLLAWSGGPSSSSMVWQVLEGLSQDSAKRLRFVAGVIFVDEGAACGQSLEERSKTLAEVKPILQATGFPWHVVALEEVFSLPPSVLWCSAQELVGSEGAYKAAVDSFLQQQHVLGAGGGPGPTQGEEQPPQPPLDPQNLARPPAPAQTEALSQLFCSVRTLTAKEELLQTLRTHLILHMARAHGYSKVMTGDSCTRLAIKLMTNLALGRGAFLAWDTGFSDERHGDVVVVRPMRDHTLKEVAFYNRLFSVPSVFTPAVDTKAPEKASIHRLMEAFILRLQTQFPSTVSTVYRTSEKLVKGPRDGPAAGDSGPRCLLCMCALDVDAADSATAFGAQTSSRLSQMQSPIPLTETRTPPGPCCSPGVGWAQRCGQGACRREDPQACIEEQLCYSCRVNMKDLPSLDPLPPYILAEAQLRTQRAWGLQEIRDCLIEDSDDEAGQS
# UniProt Q9H7P9: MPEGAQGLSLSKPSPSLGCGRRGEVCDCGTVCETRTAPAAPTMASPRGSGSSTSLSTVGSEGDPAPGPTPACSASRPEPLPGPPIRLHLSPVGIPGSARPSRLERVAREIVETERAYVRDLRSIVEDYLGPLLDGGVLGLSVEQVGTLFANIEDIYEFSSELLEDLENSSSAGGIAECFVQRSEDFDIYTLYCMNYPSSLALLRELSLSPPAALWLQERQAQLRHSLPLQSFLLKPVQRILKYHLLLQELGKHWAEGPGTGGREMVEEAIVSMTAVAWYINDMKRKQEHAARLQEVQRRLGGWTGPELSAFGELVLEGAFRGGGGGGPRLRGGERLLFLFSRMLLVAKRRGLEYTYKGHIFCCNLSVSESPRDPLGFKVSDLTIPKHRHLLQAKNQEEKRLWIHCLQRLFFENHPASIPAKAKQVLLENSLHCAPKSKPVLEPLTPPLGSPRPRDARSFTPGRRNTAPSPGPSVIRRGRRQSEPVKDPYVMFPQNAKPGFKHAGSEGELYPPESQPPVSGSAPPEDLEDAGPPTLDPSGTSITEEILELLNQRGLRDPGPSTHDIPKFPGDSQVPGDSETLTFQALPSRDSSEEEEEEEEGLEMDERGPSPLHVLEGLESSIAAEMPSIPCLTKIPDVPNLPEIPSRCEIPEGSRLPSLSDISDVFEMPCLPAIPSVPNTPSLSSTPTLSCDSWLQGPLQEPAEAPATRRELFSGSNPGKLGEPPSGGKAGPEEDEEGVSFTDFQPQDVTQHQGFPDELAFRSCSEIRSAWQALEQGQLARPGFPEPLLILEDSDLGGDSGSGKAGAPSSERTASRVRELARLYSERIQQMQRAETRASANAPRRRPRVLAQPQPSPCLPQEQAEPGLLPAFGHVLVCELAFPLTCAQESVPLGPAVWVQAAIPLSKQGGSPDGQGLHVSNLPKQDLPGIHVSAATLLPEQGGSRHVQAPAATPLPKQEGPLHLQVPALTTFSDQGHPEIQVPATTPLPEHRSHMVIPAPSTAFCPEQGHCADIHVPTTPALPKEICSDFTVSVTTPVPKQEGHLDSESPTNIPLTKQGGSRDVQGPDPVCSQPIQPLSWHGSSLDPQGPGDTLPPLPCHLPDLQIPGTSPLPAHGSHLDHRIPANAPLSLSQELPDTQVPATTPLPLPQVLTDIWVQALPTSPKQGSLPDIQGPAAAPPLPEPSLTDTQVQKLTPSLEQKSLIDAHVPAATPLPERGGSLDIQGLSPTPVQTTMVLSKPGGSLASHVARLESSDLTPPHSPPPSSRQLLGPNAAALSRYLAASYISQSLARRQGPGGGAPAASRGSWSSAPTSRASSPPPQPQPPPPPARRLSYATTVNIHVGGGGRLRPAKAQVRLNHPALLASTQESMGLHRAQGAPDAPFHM
# UniProt Q9BZG8: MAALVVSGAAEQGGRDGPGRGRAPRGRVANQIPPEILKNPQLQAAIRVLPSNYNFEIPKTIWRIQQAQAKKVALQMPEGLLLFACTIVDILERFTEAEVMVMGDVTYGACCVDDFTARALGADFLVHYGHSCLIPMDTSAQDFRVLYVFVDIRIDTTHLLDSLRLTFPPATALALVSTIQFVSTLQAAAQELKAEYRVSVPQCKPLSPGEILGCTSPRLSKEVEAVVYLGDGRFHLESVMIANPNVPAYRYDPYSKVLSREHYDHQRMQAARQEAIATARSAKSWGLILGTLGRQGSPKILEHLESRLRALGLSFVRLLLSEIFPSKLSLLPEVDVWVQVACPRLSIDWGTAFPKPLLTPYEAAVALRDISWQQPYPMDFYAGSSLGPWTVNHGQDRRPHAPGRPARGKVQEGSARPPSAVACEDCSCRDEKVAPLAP
# UniProt Q6PK04: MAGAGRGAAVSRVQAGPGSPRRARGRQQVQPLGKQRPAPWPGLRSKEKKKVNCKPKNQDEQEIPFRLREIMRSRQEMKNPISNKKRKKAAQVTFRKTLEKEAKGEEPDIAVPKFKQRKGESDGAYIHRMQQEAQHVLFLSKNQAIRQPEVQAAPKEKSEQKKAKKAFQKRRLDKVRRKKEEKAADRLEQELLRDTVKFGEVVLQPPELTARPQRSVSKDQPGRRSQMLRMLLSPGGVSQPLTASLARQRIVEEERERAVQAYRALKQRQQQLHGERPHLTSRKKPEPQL
# UniProt Q9UL33, whole entry: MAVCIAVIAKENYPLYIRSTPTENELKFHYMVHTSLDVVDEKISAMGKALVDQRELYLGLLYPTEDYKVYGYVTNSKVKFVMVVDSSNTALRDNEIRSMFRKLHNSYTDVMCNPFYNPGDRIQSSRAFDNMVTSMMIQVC
# UniProt Q99933: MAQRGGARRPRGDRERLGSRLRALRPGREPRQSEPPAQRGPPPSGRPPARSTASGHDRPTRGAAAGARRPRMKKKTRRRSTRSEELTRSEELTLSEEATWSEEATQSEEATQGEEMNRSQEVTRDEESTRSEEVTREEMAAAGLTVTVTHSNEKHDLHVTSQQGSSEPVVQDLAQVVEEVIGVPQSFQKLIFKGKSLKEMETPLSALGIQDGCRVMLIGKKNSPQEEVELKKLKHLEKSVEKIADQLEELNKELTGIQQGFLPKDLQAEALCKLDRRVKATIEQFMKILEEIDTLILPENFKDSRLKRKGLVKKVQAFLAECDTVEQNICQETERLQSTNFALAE
# UniProt Q9H8U3: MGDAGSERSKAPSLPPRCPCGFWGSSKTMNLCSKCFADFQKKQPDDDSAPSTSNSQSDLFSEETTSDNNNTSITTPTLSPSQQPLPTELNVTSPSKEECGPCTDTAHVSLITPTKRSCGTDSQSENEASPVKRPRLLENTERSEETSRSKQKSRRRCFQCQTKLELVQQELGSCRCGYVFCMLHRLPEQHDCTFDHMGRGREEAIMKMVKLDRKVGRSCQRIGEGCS
# UniProt Q6PCT2: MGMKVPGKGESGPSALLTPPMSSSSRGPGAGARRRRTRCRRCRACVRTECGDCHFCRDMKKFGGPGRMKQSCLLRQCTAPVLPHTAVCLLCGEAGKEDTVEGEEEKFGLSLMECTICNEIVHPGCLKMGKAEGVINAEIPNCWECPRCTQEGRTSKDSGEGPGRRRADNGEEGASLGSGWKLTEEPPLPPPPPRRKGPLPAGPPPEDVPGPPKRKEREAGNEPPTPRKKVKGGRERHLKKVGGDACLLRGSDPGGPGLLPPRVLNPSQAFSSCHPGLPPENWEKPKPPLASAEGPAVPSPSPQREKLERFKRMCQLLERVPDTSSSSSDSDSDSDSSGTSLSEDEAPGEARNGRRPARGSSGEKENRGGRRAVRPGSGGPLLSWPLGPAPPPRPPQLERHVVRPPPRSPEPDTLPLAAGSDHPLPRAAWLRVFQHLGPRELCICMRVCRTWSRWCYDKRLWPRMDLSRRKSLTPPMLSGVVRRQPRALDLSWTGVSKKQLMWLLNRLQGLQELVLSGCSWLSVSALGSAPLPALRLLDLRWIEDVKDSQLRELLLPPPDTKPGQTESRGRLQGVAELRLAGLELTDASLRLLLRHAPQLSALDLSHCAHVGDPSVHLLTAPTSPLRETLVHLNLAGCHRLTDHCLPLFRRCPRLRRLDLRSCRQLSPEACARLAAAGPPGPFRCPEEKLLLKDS
# UniProt Q9BSR8: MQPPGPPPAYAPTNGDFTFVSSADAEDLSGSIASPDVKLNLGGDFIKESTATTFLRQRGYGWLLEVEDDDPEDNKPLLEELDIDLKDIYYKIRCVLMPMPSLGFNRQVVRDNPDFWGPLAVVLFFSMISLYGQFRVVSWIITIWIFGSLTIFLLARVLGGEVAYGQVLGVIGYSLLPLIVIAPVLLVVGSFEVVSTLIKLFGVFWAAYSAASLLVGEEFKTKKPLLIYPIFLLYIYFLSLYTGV
# UniProt Q9NP58: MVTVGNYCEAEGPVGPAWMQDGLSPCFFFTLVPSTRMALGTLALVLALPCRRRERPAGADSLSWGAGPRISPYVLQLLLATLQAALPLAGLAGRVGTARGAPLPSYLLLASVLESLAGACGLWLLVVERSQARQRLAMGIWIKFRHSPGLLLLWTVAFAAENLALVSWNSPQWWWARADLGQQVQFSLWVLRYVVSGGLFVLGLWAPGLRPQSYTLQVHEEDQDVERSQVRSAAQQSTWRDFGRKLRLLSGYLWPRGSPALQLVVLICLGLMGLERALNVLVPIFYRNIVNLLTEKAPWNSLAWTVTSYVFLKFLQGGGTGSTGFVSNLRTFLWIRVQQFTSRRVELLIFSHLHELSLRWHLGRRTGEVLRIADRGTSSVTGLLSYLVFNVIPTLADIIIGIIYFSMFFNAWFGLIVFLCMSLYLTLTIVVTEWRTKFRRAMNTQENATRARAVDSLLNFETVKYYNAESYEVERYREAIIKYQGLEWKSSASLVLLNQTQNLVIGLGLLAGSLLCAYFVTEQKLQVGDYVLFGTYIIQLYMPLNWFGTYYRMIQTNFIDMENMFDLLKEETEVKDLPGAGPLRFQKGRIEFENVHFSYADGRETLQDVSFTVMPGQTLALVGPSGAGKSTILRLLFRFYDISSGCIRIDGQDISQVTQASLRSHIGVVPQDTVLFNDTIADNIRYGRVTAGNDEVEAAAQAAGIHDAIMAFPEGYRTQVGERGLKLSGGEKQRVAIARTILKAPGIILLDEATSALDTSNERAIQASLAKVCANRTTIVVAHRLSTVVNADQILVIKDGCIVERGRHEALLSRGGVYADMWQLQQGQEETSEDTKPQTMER
# UniProt Q8WYJ6: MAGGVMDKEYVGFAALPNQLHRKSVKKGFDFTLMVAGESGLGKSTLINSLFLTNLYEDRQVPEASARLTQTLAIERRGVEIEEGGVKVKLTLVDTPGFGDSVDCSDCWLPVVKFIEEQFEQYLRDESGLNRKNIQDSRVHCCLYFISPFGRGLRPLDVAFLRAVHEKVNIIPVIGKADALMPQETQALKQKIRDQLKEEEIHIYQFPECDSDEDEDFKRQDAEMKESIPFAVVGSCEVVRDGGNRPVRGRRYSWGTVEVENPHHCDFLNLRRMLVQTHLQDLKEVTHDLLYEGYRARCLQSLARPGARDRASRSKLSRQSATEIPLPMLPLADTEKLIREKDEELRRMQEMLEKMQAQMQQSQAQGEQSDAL
# UniProt P09493, whole entry: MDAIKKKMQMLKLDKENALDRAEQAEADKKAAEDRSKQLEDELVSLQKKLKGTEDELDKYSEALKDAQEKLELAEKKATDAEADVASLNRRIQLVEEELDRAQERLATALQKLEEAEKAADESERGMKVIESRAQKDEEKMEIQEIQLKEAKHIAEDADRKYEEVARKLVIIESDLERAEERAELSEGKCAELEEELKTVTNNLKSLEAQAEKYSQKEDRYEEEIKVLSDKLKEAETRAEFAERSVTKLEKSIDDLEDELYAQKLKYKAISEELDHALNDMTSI
# ± gives the standard deviation of the averaged measurements. This is a selection; strong and weak results do not stand in their true shares. Small differences around the control level are noise.
# Compound: Nc1ncnc2c1ncn2[C@@H]1O[C@H](COP(=O)(O)OP(=O)(O)NP(=O)(O)O)[C@@H](O)[C@H]1O [adenylyl imidodiphosphate]
# Assay: NP40-soluble protein abundance relative to vehicle (solubility fold change) (ratio); higher = more soluble protein in presence of AMP-PNP
# Settings: concentration: 0.1mM
# How it was run: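 Across three independent experiments, values are fold changes against the detergent-processed vehicle for each replicate, based on vsn-normalised intensities. The samples were Jurkat crude lysate treated with eight concentrations (0.1 to 10 mM) for 10 min at room temperature and then 3 min at 37 °C. Lysate was solubilised with 0.8% NP40 and benzonase, ultracentrifuged, and the supernatant analysed by TMT-labelled LC-MS/MS.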
row,Target,NP40-soluble protein abundance
1,H0YDM4 and related entries (UniProt Q86VS8),0.9768 ± 0.0072
2,H3BQW8 and related entries (UniProt Q16775),0.998 ± 0.029
3,H3BSW6 and related entries (UniProt Q2VPK5),0.998 ± 0.0094
4,H7BXC7 and related entries (UniProt Q9H7P9),1.03 ± 0.025
5,H3BRB6 and related entries (UniProt Q8ND25),1.02 ± 0.036
6,I3L2B0 and related entries (UniProt O75153),1.02 ± 0.038
7,H0Y362 and related entries (UniProt Q8NEW0),1.02 ± 0.029
8,J3KNW7 and related entries (UniProt Q9Y592),1.008 ± 0.0047
9,G5E9V4 and related entries (UniProt Q969F9),1 ± 0.017
10,H0Y9Z5 and related entries (UniProt Q96LI5),0.9805 ± 0.0035
11,J3KP27 and related entries (UniProt Q9Y296),1.04 ± 0.013
12,H7BZJ3 and related entries (UniProt P30101),0.9977 ± 0.0065
13,I3L1H5 and related entries (UniProt Q9BZG8),1.02 ± 0.003
14,I3L0U5 and related entries (UniProt Q6PK04),0.9958 ± 0.0071
15,H3BP13 and related entries (UniProt Q9UL33),1 ± 0.027
16,J3QTA2 and related entries (UniProt Q99933),0.982 ± 0.02
17,I3L1K6 and related entries (UniProt P12829),0.94 ± 0.011
18,H0YKS8 and related entries (UniProt Q08431),1.07 ± 0.022
19,J3QT09 and related entries (UniProt Q9BQF6),0.983 ± 0.05

row,Target,NP40-soluble protein abundance
1,H0Y398 and related entries (UniProt Q9H8U3),0.974 ± 0.031
2,H3BPZ0 and related entries (UniProt Q6PCT2),1.02 ± 0.042
3,H7C0D5 and related entries (UniProt Q9BSR8),0.982 ± 0.055
4,H0YMI4 and related entries (UniProt Q9Y6I4),1.025 ± 0.0045
5,H0YL22 and related entries (UniProt Q9Y375),1.01 ± 0.025
6,G3V5P0 and related entries (UniProt Q86UP2),0.993 ± 0.035
7,J3QL71 and related entries (UniProt Q96FV2),1.03 ± 0.064
8,J3KQJ1 and related entries (UniProt Q8NBJ7),1.01 ± 0.024
9,J9JIE6 and related entries (UniProt Q9UM00),0.984 ± 0.037
10,H7BXK9 and related entries (UniProt Q9NP58),0.9772 ± 0.0072
11,I3L2M1 and related entries (UniProt Q8WYJ6),1.01 ± 0.013
12,J3KQ48 and related entries (UniProt Q9Y3E5),1.02 ± 0.018
13,J3KQS5 and related entries (UniProt Q96JA3),0.987 ± 0.015
14,H7C1J8 and related entries (UniProt P51991),1.09 ± 0.11
15,H0Y7P7 and related entries (UniProt Q9UG56),0.968 ± 0.019
16,H7BYY1 and related entries (UniProt P09493),1.03 ± 0.064
17,K7EJ78 and related entries (UniProt P62841),1.03 ± 0.06
18,J3KPS0 and related entries (UniProt Q9NXW2),1 ± 0.021
19,H0YC40 and related entries (UniProt Q08722),0.967 ± 0.019
